For at least one compound, name, drawing or mass did not settle the structure.
Tested on: ARPE-19 cells
Assay: Western blotting for EMT markers in ARPE-19 cells treated with TGF-β1 and RA
Assay type: cell-based

CC1=C(/C=C/C(C)=C/C=C/C(C)=C/C(=O)O)C(C)(C)CCC1 [RA, Retinoic acid]
TGF-β1-induced EMT (48 hours with TGF-β1 (10 ng/mL) and RA (10 μM), Western blotting of EMT markers): can suppress | EMT in the absence of AKAP12 (absence of AKAP12, RA (10 μM) with TGF-β1 (10 ng/mL)): cannot suppress EMT
